In PubChem BioAssay AID602313 (National Center for Advancing Translational Sciences (NCATS), 2012):
Screen size: about 390,000 compounds; about 760 (0.19%) were called active. The shares of active, inactive and inconclusive entries below differ from those in the screen. Calls follow the shape of the dose curve; as a rule, active = well fitted inhibition curve with a large enough effect; inconclusive = small, poorly fitted or top-dose-only effect; inactive = flat fitted curve, though single readings scatter. A potency beside an inconclusive call is a rough fit, not a confirmed value.

Experiment: qHTS for Inhibitors of Vif-A3F Interactions: qHTS; also: nearly all actives have a fitted effect of over 65% in size; as to activity, negative = active: % of control where 0% means no effect
Conditions: HeLa A3F-eYFP + Vif (tagged APOBEC3F with the HIV-1 protein that degrades it), YFP fluorescence increase; series mostly up to 46.1 µM; activity, negative = active: at the top concentration
Outline: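 Fluorescence increase (Ex 488/Em 500-530) after overnight compound treatment at 37 deg C flags inhibition of Vif-driven A3F-eYFP loss in stable HeLa A3F-eYFP/Vif cells seeded overnight beforehand.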
Potency is read from the fitted curve at half-maximal effect.

SMILES	Potency	activity, negative = active
O=C1CC(NS(=O)(=O)c2cccnc2)CN1c1ccccc1 (configuration not stated)	inconclusive: 2.82 µM [inhibitor, full curve, poor fit]	
O=C(CSc1nc2ncc(Cl)cc2[nH]1)N1CCC(Cc2ccccc2)CC1	inconclusive: 35.5 µM [inhibitor, single point]	
CC1CCCCC1NC(=S)NC(=O)c1cccs1 (configuration not stated)	inconclusive: 11.2 µM [inhibitor, single point]	
COC1=C(Br)C(=O)c2nc(C)ccc2C1=O	inconclusive: 6.31 µM [inhibitor, single point]	
CCc1ccc(NC(=O)CSc2nc3c([nH]c4ccccc43)c(=O)n2C)cc1	inconclusive: 28.2 µM [inhibitor, single point]	
CCCCNC(=O)COC(=O)c1c2c(nc3ccccc13)/C(=C\c1cccs1)CC2	inconclusive: 15.8 µM [inhibitor, partial curve, poor fit]	
COc1ccc(C/C(C)=N/NC(=S)Nc2ccccc2)cc1	inconclusive: 17.8 µM [inhibitor, partial curve, poor fit]	
CC(C)CN(C(=O)COC(=O)c1cncc(Br)c1)c1c(N)n(Cc2ccccc2)c(=O)[nH]c1=O	inconclusive: 20 µM [inhibitor, partial curve, poor fit]	
O=C1NNC(c2ccccc2)=N/C1=C\c1ccco1	inconclusive: 17.8 µM [inhibitor, single point]	
COc1cc(NC(=O)c2cncc(-c3ccc(C#N)cc3)c2)cc(C(=O)Nc2cccc(C(F)(F)F)c2)c1	inconclusive: 10 µM [inhibitor, partial curve]	
O=C(COc1cccnc1[N+](=O)[O-])c1c[nH]c2ccccc12	inconclusive: 35.5 µM [inhibitor, single point]	
Cc1ccc(N2C(=O)[C@@H]3[C@H](C2=O)[C@H]2C=C(C(=O)c4ccccc4)C=CN2[C@@H]3C(=O)c2ccc(Cl)cc2)cc1	active: 11.2 µM	
Cc1cccc(NC(=O)CN2C(=O)c3cccnc3Oc3ccc(Cl)cc32)c1C	inconclusive: 25.1 µM [inhibitor, single point]	
O=C(NC(=S)NCc1ccccc1)c1ccc(Br)cc1	inconclusive: 35.5 µM [inhibitor, single point]	
CCCn1c(/C=C/c2ccco2)nc2ccccc21	inconclusive: 35.5 µM [inhibitor, single point]	
O=C(Nc1ccc2oc(Cc3ccc(Cl)cc3)nc2c1)c1cccnc1		inactive: -0.229%
COc1ccc(NC(=O)c2cc(-c3ccco3)nc3ccccc23)cn1	inconclusive: 35.5 µM [inhibitor, single point]	

Reformatted: results already given
SMILES | Potency | activity, negative = active
CC1CCCCC1NC(=S)NC(=O)c1cccs1 (configuration not stated) | inconclusive: 11.2 µM [inhibitor, single point] | 
COC1=C(Br)C(=O)c2nc(C)ccc2C1=O | inconclusive: 6.31 µM [inhibitor, single point] | 
